Results deposited as PubChem BioAssay AID1259405 (NCATS, 2018).

Screen: 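Silenced genes that increase secreted GFP made by CHO cells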 (primary screen)
Cell system: Chinese hamster CHO-K1 ovary cells with stable secreted eGFP expression
Reagent: single siRNA against mouse genes, 0.8 pmol siRNA per well (2 µl of 400 nM stock)
Timing: 3 days
Measured: 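Percent of the per-plate non-targeting control median for intracellular GFP per well by laser scanning cytometry and for cell viability by ATP luminescence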
Direction: GFP, % of control: higher = more GFP per well, higher productivity; viability (ATP), % of control: higher = more viable cells (more ATP)
Active means: 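Called active when intracellular GFP, relative to negative control, is at or above 120%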
Here is a random part of about 50,000 reagents tested. About 4,000 of them (8%) count as active. 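Mouse siRNA library applied to hamster cells; one well for each siRNA.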 Entries without a mark were called inactive. Reagents against one gene are numbered here.

{"Gene":"Tmem209 (GeneID 72649)","siRNA no.":1,"GFP, % of control":51.5,"viability (ATP), % of control":61.3}
{"Gene":"Tmem209 (GeneID 72649)","siRNA no.":2,"GFP, % of control":50.9,"viability (ATP), % of control":48.3}
{"Gene":"Tmem209 (GeneID 72649)","siRNA no.":3,"GFP, % of control":65.7,"viability (ATP), % of control":75.7}
{"Gene":"Plcl2 (GeneID 224860)","siRNA no.":1,"GFP, % of control":70.3,"viability (ATP), % of control":82.9}
{"Gene":"Plcl2 (GeneID 224860)","siRNA no.":2,"GFP, % of control":80.3,"viability (ATP), % of control":60.1}
{"Gene":"Plcl2 (GeneID 224860)","siRNA no.":3,"GFP, % of control":114,"viability (ATP), % of control":108}
{"Gene":"Vmn1r215 (GeneID 171253)","siRNA no.":1,"GFP, % of control":60.6,"viability (ATP), % of control":74.6}
{"Gene":"Vmn1r215 (GeneID 171253)","siRNA no.":2,"GFP, % of control":70.9,"viability (ATP), % of control":81.9}
{"Gene":"Vmn1r215 (GeneID 171253)","siRNA no.":3,"GFP, % of control":45.6,"viability (ATP), % of control":84.3}
{"Gene":"Tmem19 (GeneID 67226)","siRNA no.":1,"GFP, % of control":101,"viability (ATP), % of control":37.5}
{"Gene":"Tmem19 (GeneID 67226)","siRNA no.":2,"GFP, % of control":114,"viability (ATP), % of control":116}
{"Gene":"Tmem19 (GeneID 67226)","siRNA no.":3,"GFP, % of control":"137 (active)","viability (ATP), % of control":149}
{"Gene":"Atxn7l1 (GeneID 380753)","siRNA no.":1,"GFP, % of control":71.5,"viability (ATP), % of control":75.3}
{"Gene":"Atxn7l1 (GeneID 380753)","siRNA no.":2,"GFP, % of control":38.4,"viability (ATP), % of control":63.8}
{"Gene":"Atxn7l1 (GeneID 380753)","siRNA no.":3,"GFP, % of control":71.3,"viability (ATP), % of control":84.4}
{"Gene":"Atxn7l1 (GeneID 380753)","siRNA no.":4,"GFP, % of control":67.6,"viability (ATP), % of control":62.2}
{"Gene":"Atxn7l1 (GeneID 380753)","siRNA no.":5,"GFP, % of control":82.7,"viability (ATP), % of control":80.7}
{"Gene":"Atxn7l1 (GeneID 380753)","siRNA no.":6,"GFP, % of control":72.1,"viability (ATP), % of control":42.4}
{"Gene":"Vmn1r51 (GeneID 22296)","siRNA no.":1,"GFP, % of control":64.7,"viability (ATP), % of control":75.7}
{"Gene":"Vmn1r51 (GeneID 22296)","siRNA no.":2,"GFP, % of control":64.6,"viability (ATP), % of control":74.6}
{"Gene":"Vmn1r51 (GeneID 22296)","siRNA no.":3,"GFP, % of control":73.6,"viability (ATP), % of control":73.5}
{"Gene":"Klra7 (GeneID 16638)","siRNA no.":1,"GFP, % of control":64.7,"viability (ATP), % of control":65.1}
{"Gene":"Klra7 (GeneID 16638)","siRNA no.":2,"GFP, % of control":"143 (active)","viability (ATP), % of control":103}
{"Gene":"Klra7 (GeneID 16638)","siRNA no.":3,"GFP, % of control":110,"viability (ATP), % of control":81.2}
{"Gene":"Spink10 (GeneID 328971)","siRNA no.":1,"GFP, % of control":104,"viability (ATP), % of control":53.8}
{"Gene":"Spink10 (GeneID 328971)","siRNA no.":2,"GFP, % of control":47,"viability (ATP), % of control":55.2}
{"Gene":"Spink10 (GeneID 328971)","siRNA no.":3,"GFP, % of control":83.8,"viability (ATP), % of control":101}

In a second layout: results already given.
Gene	siRNA no.	GFP, % of control	viability (ATP), % of control
Klra7 (GeneID 16638)	1	64.7	65.1
Klra7 (GeneID 16638)	2	143 (active)	103
Klra7 (GeneID 16638)	3	110	81.2
